Test results as given in PubChem BioAssay AID1347076 (National Center for Advancing Translational Sciences (NCATS), 2019).
Among all 400,000 compounds or so, about 13,000 (3.2%) were called active. Inconclusive results, whose numbers are uncertain, are shown with a selection of clear calls. Calls come from the whole dose curve; as a rule, active = well fitted cell-killing curve with a large enough effect; inconclusive = small, poorly fitted or top-dose-only effect, or effect the other way; inactive = flat fitted curve, though single readings scatter. Potencies of inconclusive entries are doubtful fits and often do not repeat.

test: qHTS assay for MDR1-selective chemotherapeutics: Primary screen using the drug-selected MDR subline cells KB-V1; settings: KB-V1 MDR cells viability, CellTiter-Glo, 72 h; series mostly up to 46.1 µM; note: nearly all actives have a fitted effect of over 60% in size
How it was run: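 Cells of the MDR subline KB-V1 are plated, dosed with compound at multiple concentrations, and incubated 72 h at 37 degrees C; CellTiter-Glo is then added and luminescence read after 10 min.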
Potency is the fitted concentration of half-maximal effect.

Compound	Potency
COc1ccc(SC[C@H](Cc2ccccc2)N2CC[C@@H](NC(=O)OCc3ccccc3)CCC2=O)cc1	inconclusive: 16.4 µM [cytotoxic, partial curve]
N#CN=CN1CC=C(c2ccc(Cl)cc2)CC1	active: 2.31 µM
NCCNC(=O)Cn1c(=O)c2c3c(sc2n(Cc2ccccc2)c1=O)CCCC3	inconclusive: 18.4 µM [rising, partial curve, poor fit]
Cc1ccc(CN2CCCn3nc(C(=O)NCCc4ccc(Cl)cc4)cc3C2=O)cc1	inconclusive: 8.2 µM [cytotoxic, partial curve]
CCc1ccc(NC(=O)CSc2nccn(-c3ccc4c(c3)OCCO4)c2=O)cc1	inconclusive: 29.1 µM [cytotoxic, single point]
CC(C)CC1NC(=O)N(CC(=O)Nc2ccc(OC(F)F)cc2)C1=O (configuration not stated)	inconclusive: 29.1 µM [rising, single point]
O=C(Cc1nnc(NC(=O)Nc2ccccc2)s1)NCc1ccccc1	inconclusive: 20.6 µM [rising, partial curve]
CCOC(=O)c1cc(-c2ccccc2)sc1NC(=O)c1ccc(OC)c(OC)c1	inconclusive: 20.6 µM [cytotoxic, single point]
CC/C(=N\NC(=O)c1ccc2c(c1)OCO2)c1ccccc1	inconclusive: 29.1 µM [rising, partial curve, poor fit]
Cc1ccc(OCCNC(=O)c2cc(-n3cnnc3)ccc2Cl)cc1C	inconclusive: 23.1 µM [cytotoxic, partial curve, poor fit]
Cc1cc(-n2c(C)cc(C(=O)CSc3nnc4sc5ccccc5n34)c2C)no1	inconclusive: 0.0052 µM [cytotoxic, full curve]
C[C@@H]1CC=C[C@H]2[C@H]1C(=O)N(Cc1ccccc1)[C@H]2c1ccc(/C=C/c2ccccc2)cc1F	inconclusive: 29.1 µM [rising, single point]
O/N=C/Cc1[nH]c2ccccc2c1-c1ccccc1	inconclusive: 29.1 µM [rising, single point]
COC(=O)C[C@H]1c2ccc(C(F)(F)F)cc2S(=O)(=O)N1Cc1ccccc1	inconclusive: 18.4 µM [cytotoxic, partial curve, poor fit]
CCNC(=S)N/N=C/c1cn(Cc2ccccc2F)c2ccccc12	inconclusive: 7.31 µM [cytotoxic, partial curve]
S=c1[nH]nc(-c2ccccc2)n1/N=C/c1ccc(-c2ccccc2Cl)o1	active: 13 µM
COc1ccccc1Cn1c(=S)[nH]c2cc(C(=O)NCCCN3CCOCC3)ccc2c1=O	inactive
COc1ccccc1C(=O)NCC1CCN(c2ccc(S(=O)(=O)N3CCOCC3)cc2)CC1	active: 14.6 µM
COc1ccc(C(CC(=O)Nc2ccc(C)c(C)c2)N2Cc3ccccc3C2=O)cc1OC (configuration not stated)	inconclusive: 29.1 µM [cytotoxic, single point]
CCn1c(Nc2ccccc2Cl)nc2ccccc21	inactive
COC(=O)c1ccccc1C(=O)N(Cc1cccnc1)CC1CCCN(C2CCCCC2)C1 (configuration not stated)	inconclusive: 29.1 µM [rising, single point]

Compound	Potency
Cc1ccc(-c2c(C(=O)NCc3ccccc3)oc(=O)c3ccccc23)cc1	inconclusive: 32.6 µM [cytotoxic, single point]
COC(=O)/C(C#N)=C/c1ccc(N2CCOCC2)c([N+](=O)[O-])c1	inconclusive: 29.1 µM [rising, single point]
COc1ccccc1C(=O)Nc1ccc2c(c1)CN(Cc1cnc(C)s1)CC2	inconclusive: 8.2 µM [cytotoxic, partial curve, poor fit]
O=C(Cn1c(Cc2ccccc2)nc2ccccc21)NCc1ccc2c(c1)OCO2	inconclusive: 10.3 µM [cytotoxic, partial curve]
COC(=O)c1cc(OC)c(OC)cc1NC(=O)CC1CCCCC1	inconclusive: 10.3 µM [cytotoxic, partial curve]
CCOc1ccc(-c2nc3c(s2)CCc2onc(-c4ccc(OC)cc4)c2-3)cc1	inactive
COc1cc(NC(=O)c2ccc(OCc3c(C)noc3C)c(OC)c2)cc(OC)c1	inactive
Cc1ccccc1CNC(=O)c1ccc(-c2nc(CS(=O)(=O)c3ccccc3)c(C)o2)cc1	inconclusive: 3.66 µM [cytotoxic, full curve]
CCOC(=O)[C@@H]1[C@H]2COc3ccc(Br)cc3[C@H]2N2C(=O)N(c3ccc(Br)cc3)C(=O)[C@]12C	inactive
CCOC(=O)C1=C(CS(=O)(=O)c2ccc(Br)cc2)NC(=O)NC1c1ccccc1 (configuration not stated)	inactive
Cc1ccc(-c2nc3c(Cl)cc(C(F)(F)F)cn3c2Cc2ccsc2)cc1	inactive
CCCCn1cc(C(=O)c2cc(Br)ccc2O)cc(C#N)c1=O	inconclusive: 18.4 µM [cytotoxic, partial curve, poor fit]
COc1ccc(C)cc1NC(=O)CN(c1cc(C(F)(F)F)ccc1Cl)S(C)(=O)=O	inactive
CCOc1ccc(NC(=S)NC(=O)c2c(Cl)cnn2CC)c([N+](=O)[O-])c1	inconclusive: 3.66 µM [cytotoxic, full curve]
COC(=O)c1cccc(CC2(C)C(=O)Nc3cc(-c4ccccc4Cl)ccc32)c1 (configuration not stated)	inconclusive: 29.1 µM [cytotoxic, single point]
COc1ccc(NC(=O)c2ccc(N3CCCC3=O)cc2)cc1Cl	inconclusive: 2.06 µM [cytotoxic, full curve, poor fit]
COc1cccc(N2CCN(C(=S)Nc3ccccc3)CC2)c1	inactive
CCN(CC)c1ccc(NC(=O)c2ccccc2Br)cc1S(=O)(=O)Nc1ccccc1OC	inconclusive: 5.17 µM [cytotoxic, partial curve]
O=C(C1CCCN(Cc2nc(-c3ccc(Cl)cc3)no2)C1)N1CCOCC1 (configuration not stated)	inactive
COc1ccc(CC(=O)Nc2ccccc2C(=O)NCCc2ccccc2)cc1	inconclusive: 20.6 µM [cytotoxic, partial curve, poor fit]
C#CCOCCOCCOCCNc1nc(N2CCN(C(=O)CCCCCCCCCCNC(=O)[C@H](CO)n3cc(CCCSC)nn3)CC2)nc(N2CCN(C(=O)CCCCCCCCCCNC(=O)[C@H](CCCN=C(N)N)n3cc(C[C@@H](C)CC)nn3)CC2)n1	inconclusive: 29.1 µM [cytotoxic, single point]

2 entries from above in another layout.
Compound | Potency
O=C(Cn1c(Cc2ccccc2)nc2ccccc21)NCc1ccc2c(c1)OCO2 | inconclusive: 10.3 µM [cytotoxic, partial curve]
COC(=O)c1cc(OC)c(OC)cc1NC(=O)CC1CCCCC1 | inconclusive: 10.3 µM [cytotoxic, partial curve]

Looked up by compound from the list above, 2 records:
Compound	Potency
Cc1ccc(CN2CCCn3nc(C(=O)NCCc4ccc(Cl)cc4)cc3C2=O)cc1	inconclusive: 8.2 µM [cytotoxic, partial curve]
O=C(Cc1nnc(NC(=O)Nc2ccccc2)s1)NCc1ccccc1	inconclusive: 20.6 µM [rising, partial curve]
